Out of some 360,000 compounds screened, about 7,500 (2.1%) were called active. The inconclusive results got no clear call from the source; some entries with a clear call stand among them for comparison. The call rests on the fitted dose curve; in most records, active means well fitted inhibition curve with a large enough effect; inconclusive means small, poorly fitted or top-dose-only effect, or effect the other way; inactive means flat fitted curve, though single readings scatter. Where the call is inconclusive, the potency comes from a doubtful curve fit.
Test: Nrf2 qHTS screen for inhibitors; further: nearly all actives have a fitted effect of over 60% in size
Conditions: A549 ARE-Fluc reporter, luciferase luminescence, 18-24 h; series mostly up to 46 µM
Excerpt: NIH Molecular Libraries Probe Production Network [MLPCN]
NIH Chemical Genomics Center [NCGC]
Assay Provider: Shyam Biswal, Johns Hopkins University
Nrf2 is a transcription factor that maintains cellular redox homoestasis and protects cells from xenobiotics. Nrf2 binds to the antioxidant response element (ARE) to induce gene expression of a broad spectrum of genes that encode for antioxidants. […] Finding a small molecule that act as an inhibitor of Nrf2 function would represent a novel therapeutic target that could lead to improvement in survival of patients undergoing chemo- and/or radio- therapy.
This is the Nrf2 activity measured in the luminescent read.
1. Shibata, T., et al., Genetic Alteration of Keap1 Confers Constitutive Nrf2 Activation and Resistance to Chemotherapy in Gallbladder Cancer. Gastroenterology, 2008.
2. Sjoblom, T., et al., The consensus coding sequences of human breast and colorectal cancers. Science, 2006. 314(5797): p. 268-74.
NCGC Assay Protocol Summary:
A concentration-response assay was performed with A549 ARE_Fluc cells which are suspended in 5% FBS OPTI-MEM. Five uL were dispensed into 1536-well white TC-treated plate using the Kalypsys dispenser to achieve a density of 5000 cells/well in all columns except column 1. The plate is incubated at 37deg C at 5% CO2 for 2 hours before 23 nL of compounds are added with the Kalypsys pin tool equipped with a 1,536-pin array containing 10-nL slotted pins (FP1S10, 0.457-mm diameter, 50.8 mm long; V&P Scientific). The control compounds Budesonide and Staurosporine are both added at a concentration of 2mM and Budesonide is also added as a 1:10 titration, starting at 200uM, to achieve dose-response. After an 18-24 hour incubation at 37deg C at 5% CO2, 5ul of medium is added to column 1. Afterwards 1ul of 5x of CellTiter-Fluor (Promega) is added to every well. The plate is then incubated at 37deg C at 5% CO2 for 30 minutes before they are read on the ViewLux (Perkin Elmer) for a fluorescent read Ex=405(10)/Em=525(10) for a 3 second exposure, 2x binning, and high gain. Then 3 uL of 3x BugLite is dispensed into all wells and the plate is incubated at ambient room temperature for 15 minutes. Afterwards another ViewLux read is performed using the clear filter to get a luminescent read with the settings of 40 second exposure, 2x binning, and high gain. Cytotoxicity is assessed through the first fluorescent read and then biochemical activity against Nrf2 is measured in the luminescent read.
Potency means the concentration at half of the fitted maximal effect.

Compound	Potency
CCSc1nn(CC(=O)Nc2cccc(Cl)c2)c(N)c1S(=O)(=O)c1ccc(OC)cc1	active: 18.4 µM
O=C(CSc1nnnn1Cc1ccccc1)c1ccc(F)cc1	inconclusive: 16.4 µM [activator, single point]
COc1ccc(NC(=O)CSc2ccc3c4c(cccc24)C(=O)c2ccccc2-3)cc1	active: 10.3 µM
COc1ccc(-c2sc3ccccc3c2-c2ccc(O)cc2)cc1	inconclusive: 11.6 µM [falling, single point]
COc1ccc(CC(=O)Nc2c3c(nn2-c2cccc(Cl)c2)CS(=O)C3)cc1 (stereo not given)	inconclusive: 4.11 µM [activator, single point]
Cc1ccc(NC(=O)CSC2=C(C#N)C(c3ccco3)CC(=O)N2)cc1 (stereo not given)	inactive
Cc1cc2c(c(N)n1)c(=O)oc1ccccc12	inactive
Cc1ccc2occ(C(=O)c3ccco3)c(=O)c2c1	inactive
O=C(CCCCn1c(=O)[nH]c2ccsc2c1=O)NCCc1ccccc1	inconclusive: 6.51 µM [activator, partial curve]
CC(C)(C)c1ccc(-c2nc3cc(N)ccc3o2)cc1	inconclusive: 3.66 µM [activator, full curve]
CC(C)Oc1ccc(CNC(=O)c2ccc(Cn3c(=O)c4cccn4c4cccnc43)cc2)cc1	inactive
Cc1ccc(NC(=O)CSc2ccc(-c3sc(-c4ccccc4)nc3C)nn2)cc1F	inconclusive: 14.6 µM [activator, partial curve, poor fit]
COc1ccccc1N1CCN(C(=O)Cn2ncc3c(=O)oc4ccc(C)cc4c32)CC1	inactive
CCOc1ccc(CCNC(=O)c2ccc3ccccc3n2)cc1OCC	inconclusive: 29.1 µM [falling, single point]
O=C1CSc2ccccc2N1Cc1ccc(F)cc1	inconclusive: 4.61 µM [activator, single point]
O=C(NCc1ccco1)c1cccnc1-c1nc2ccccc2s1	inactive
CSc1c(-c2ccccc2)nc2ccccc2c1C(=O)O	inconclusive: 4.61 µM [falling, full curve]
O=c1cc[nH]c2c1ccc1cccnc12	inconclusive: 3.66 µM [falling, full curve, poor fit]
CCc1ccc(-c2cc(C(=O)O)c3ccccc3n2)s1	inconclusive: 29.1 µM [falling, single point]
Cc1ncoc1C(=O)Nc1ccc2c(c1)OCCO2	inconclusive: 2.06 µM [activator, full curve, poor fit]
CCOC(=O)N1CCN(c2nc3ccccc3nc2C(C#N)C(=O)NCCc2ccccc2)CC1 (stereo not given)	inactive
CCC(=O)NCCc1nc2cc(NC(=O)c3ccc(Cl)cc3)ccc2n1C	inconclusive: 10.3 µM [activator, partial curve, poor fit]
CCOC(=O)c1cnc2ccc(OCC)cc2c1N1CCN(c2ccccc2OC)CC1	inconclusive: 29.1 µM [falling, single point]

Among those listed so far, these contain a cyano group:
Compound	Potency
Cc1ccc(NC(=O)CSC2=C(C#N)C(c3ccco3)CC(=O)N2)cc1 (stereo not given)	inactive
CCOC(=O)N1CCN(c2nc3ccccc3nc2C(C#N)C(=O)NCCc2ccccc2)CC1 (stereo not given)	inactive

Next records

Compound	Potency
CCCN1CCc2c(sc3nc(SCC)n(-c4ccccc4)c(=O)c23)C1	inconclusive: 18.4 µM [falling, partial curve, poor fit]
COc1ccccc1NS(=O)(=O)c1cc2c(cc1Cl)NC(=O)CO2	inconclusive: 5.8 µM [falling, partial curve]
O=C(Nc1cccc(F)c1)/C(=C\c1cccnc1)NC(=O)c1cccs1	inconclusive: 29.1 µM [activator, single point]
Cc1c(Cl)cccc1NC(=S)N1CCc2ccccc2C1	inconclusive: 32.6 µM [falling, partial curve, poor fit]
CCN(CC(=O)Nc1c(F)cccc1F)C(=O)c1ccc(-c2ccccc2)cc1	inconclusive: 16.4 µM [falling, partial curve, poor fit]
CC1(C)CSC(=NCCc2ccccc2)N1C(=O)c1ccc(C#N)cc1	inconclusive: 9.2 µM [activator, partial curve, poor fit]
CCOC(=O)C1=C(C)NC(=S)NC1c1cccs1 (stereo not given)	inactive
CC1(C)CC(=O)C2=C(C1)Oc1ncn(Cc3ccco3)c(=N)c1C2c1ccccc1 (stereo not given)	inconclusive: 20.6 µM [falling, partial curve, poor fit]
Cc1nc2ccccc2c(=O)n1/N=C/c1ccccc1Cl	inconclusive: 18.4 µM [activator, partial curve, poor fit]
Cc1ccc(OCC(O)Cn2c(=N)n(CCN3CCCCC3)c3ccccc32)cc1 (stereo not given)	inactive
COc1ccc(C2C(C#N)=C(SCC(=O)Nc3ccc(C)cc3)NC3=C2C(=O)CC(C)(C)C3)cc1 (stereo not given)	inconclusive: 29.1 µM [falling, single point]
COc1c(C)cccc1C(=O)Nc1ccc(N2CCN(C(=O)c3ccccc3C)CC2)cc1	active: 20.6 µM
CCCCCCCCN1[C@@H](CC(=O)OCC)c2cc(F)ccc2S1(=O)=O	inconclusive: 29.1 µM [falling, single point]
CC1=C(C#N)C(/C=N/OCc2ccc(F)cc2Cl)CC(=O)N1 (stereo not given)	inconclusive: 32.6 µM [falling, partial curve, poor fit]
COC(=O)c1ccc(C(=O)N=c2sccn2C)cc1	inconclusive: 20.6 µM [activator, single point]
CCOc1ccc(CC(=O)Nc2ccc(S(=O)(=O)N3CCCC3)cc2)cc1	inconclusive: 18.4 µM [falling, partial curve]
C/C(=N\NC(=O)c1cc(Br)ccc1O)c1ccccn1	inactive
CCOc1ccc(NC(=O)/C(C=Nc2ccccc2)=C(\C)O)cc1	inconclusive: 4.61 µM [activator, full curve]
CCOC(=O)c1c(C)n(-c2ccccc2)c2ccc(OC(=O)c3ccccc3NC(=O)C(C)(C)C)cc12	inactive
O=C(c1ccc(F)cc1Cl)N1CCN(S(=O)(=O)c2cccs2)CC1	inconclusive: 29.1 µM [falling, single point]
O=c1c(C(c2ccccc2)c2c(O)nc3n(c2=O)CCCS3)c(O)nc2n1CCCS2	inactive
Cc1cccc(CNC(=O)c2cnc3sc(N4CCCCCC4)nn3c2=O)c1	inactive

A draw from above in order of count of non-hydrogen atoms, ascending.
Compound	Potency
CCc1ccc(-c2cc(C(=O)O)c3ccccc3n2)s1	inconclusive: 29.1 µM [falling, single point]
CC1(C)CSC(=NCCc2ccccc2)N1C(=O)c1ccc(C#N)cc1	inconclusive: 9.2 µM [activator, partial curve, poor fit]
CCN(CC(=O)Nc1c(F)cccc1F)C(=O)c1ccc(-c2ccccc2)cc1	inconclusive: 16.4 µM [falling, partial curve, poor fit]
